The target of assay [1] is c-Cbl-myc (UniProt P22681). Nature of the assay: co-IP; HEK-293T cells transfected with FGFR4-Flag and c-Cbl-myc, lysed, immunoprecipitated with MYC-tag or Flag-tag antibody, Western blot; also with cLMNB1 overexpression vector and MG132 (interaction markedly enhanced by cLMNB1). Background: A western blot detects proteins with antibodies after separation by electrophoresis.

For assay [2], the target named is E3 ubiquitin-protein ligase CBL (c-Cbl), endogenous (human (endogenous in PC9OR)) (UniProt P22681). Nature of the assay: co-IP; PC9OR cells lysed, immunoprecipitated with anti-c-Cbl and blotted with FGFR4 antibody, and vice versa; endogenous proteins.
The target is the same in assay [3]. Nature of the assay: proximity ligation; Duolink in situ PLA of FGFR4 and c-Cbl in the indicated cells, with or without cLMNB1 overexpression; average PLA spots per cell.

Results are given in words; binding and its absence hold for the method and conditions named. In cells and extracts the contact can be indirect. Some results given as binding are weak or reduced against the parent protein; the word gives no strength.

“FGFR4-Flag (from UniProt P22455 22-802) (receptor)”: in assay [1], the binding result is listed as “binds”.

Regarding “fibroblast growth factor receptor 4 (FGFR4), endogenous (from UniProt P22455 22-802)”, the binding entry in assay [2] and in assay [3] was “binds” in each case.
